Assay results taken from the supplement of paper PMC10060354, “Discovery of a small molecule ligand of FRS2 that inhibits invasion and tumor growth” (Cellular Oncology, 2022).

The chains behind the UniProt entries cited, without tags or fusion partners. Where a name states a change or a piece, a line headed by the entry shows the natural chain unless it says otherwise.
UniProt Q9UKF6: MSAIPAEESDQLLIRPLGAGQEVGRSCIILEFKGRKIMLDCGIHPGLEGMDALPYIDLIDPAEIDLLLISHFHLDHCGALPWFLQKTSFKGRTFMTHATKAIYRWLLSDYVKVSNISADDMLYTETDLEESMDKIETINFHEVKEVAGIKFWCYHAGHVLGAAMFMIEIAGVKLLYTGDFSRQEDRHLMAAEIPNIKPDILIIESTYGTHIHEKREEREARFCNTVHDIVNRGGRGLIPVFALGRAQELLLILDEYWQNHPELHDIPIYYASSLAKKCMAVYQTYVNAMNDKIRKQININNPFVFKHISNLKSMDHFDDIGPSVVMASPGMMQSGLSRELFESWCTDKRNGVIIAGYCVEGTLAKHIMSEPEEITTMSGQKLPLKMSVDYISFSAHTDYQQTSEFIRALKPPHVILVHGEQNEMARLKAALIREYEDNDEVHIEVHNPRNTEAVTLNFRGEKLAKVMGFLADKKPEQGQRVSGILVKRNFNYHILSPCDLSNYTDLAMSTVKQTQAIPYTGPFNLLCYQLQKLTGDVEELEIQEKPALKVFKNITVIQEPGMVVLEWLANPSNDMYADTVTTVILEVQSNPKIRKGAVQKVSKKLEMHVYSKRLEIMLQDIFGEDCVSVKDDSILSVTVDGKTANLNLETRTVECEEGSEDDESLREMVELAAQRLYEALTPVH
UniProt P01033: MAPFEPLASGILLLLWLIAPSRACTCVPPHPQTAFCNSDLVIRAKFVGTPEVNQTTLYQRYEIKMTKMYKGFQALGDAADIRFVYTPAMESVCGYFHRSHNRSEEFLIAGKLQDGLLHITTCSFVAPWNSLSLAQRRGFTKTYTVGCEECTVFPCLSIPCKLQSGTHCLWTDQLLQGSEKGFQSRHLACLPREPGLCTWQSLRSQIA
UniProt Q96GY0: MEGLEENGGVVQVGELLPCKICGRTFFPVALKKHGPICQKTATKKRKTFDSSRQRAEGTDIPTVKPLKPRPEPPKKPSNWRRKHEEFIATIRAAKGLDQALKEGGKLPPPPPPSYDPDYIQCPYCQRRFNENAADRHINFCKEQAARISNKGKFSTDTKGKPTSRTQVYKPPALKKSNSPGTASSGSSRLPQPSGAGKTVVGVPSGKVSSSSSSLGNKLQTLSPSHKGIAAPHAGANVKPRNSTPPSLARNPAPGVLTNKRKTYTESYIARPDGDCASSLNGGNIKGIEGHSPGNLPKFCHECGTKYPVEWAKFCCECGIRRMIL
UniProt Q9UK73, whole entry: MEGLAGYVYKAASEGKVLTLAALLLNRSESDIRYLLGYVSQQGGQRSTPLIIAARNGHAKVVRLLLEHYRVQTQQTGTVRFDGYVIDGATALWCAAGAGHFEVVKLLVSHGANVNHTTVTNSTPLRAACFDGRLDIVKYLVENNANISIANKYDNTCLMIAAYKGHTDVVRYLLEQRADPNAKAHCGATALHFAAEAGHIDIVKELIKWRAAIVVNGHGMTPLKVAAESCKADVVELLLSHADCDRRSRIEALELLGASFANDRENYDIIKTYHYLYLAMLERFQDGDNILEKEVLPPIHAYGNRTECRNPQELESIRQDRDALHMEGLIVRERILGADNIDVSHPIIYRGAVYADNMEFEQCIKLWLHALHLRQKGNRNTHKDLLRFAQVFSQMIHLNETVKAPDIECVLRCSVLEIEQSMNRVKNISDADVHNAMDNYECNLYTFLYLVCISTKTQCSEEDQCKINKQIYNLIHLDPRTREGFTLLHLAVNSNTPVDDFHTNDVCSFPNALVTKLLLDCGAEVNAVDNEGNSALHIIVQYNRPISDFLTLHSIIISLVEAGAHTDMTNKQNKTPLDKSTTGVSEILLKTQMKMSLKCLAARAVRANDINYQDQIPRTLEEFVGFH
UniProt Q14674: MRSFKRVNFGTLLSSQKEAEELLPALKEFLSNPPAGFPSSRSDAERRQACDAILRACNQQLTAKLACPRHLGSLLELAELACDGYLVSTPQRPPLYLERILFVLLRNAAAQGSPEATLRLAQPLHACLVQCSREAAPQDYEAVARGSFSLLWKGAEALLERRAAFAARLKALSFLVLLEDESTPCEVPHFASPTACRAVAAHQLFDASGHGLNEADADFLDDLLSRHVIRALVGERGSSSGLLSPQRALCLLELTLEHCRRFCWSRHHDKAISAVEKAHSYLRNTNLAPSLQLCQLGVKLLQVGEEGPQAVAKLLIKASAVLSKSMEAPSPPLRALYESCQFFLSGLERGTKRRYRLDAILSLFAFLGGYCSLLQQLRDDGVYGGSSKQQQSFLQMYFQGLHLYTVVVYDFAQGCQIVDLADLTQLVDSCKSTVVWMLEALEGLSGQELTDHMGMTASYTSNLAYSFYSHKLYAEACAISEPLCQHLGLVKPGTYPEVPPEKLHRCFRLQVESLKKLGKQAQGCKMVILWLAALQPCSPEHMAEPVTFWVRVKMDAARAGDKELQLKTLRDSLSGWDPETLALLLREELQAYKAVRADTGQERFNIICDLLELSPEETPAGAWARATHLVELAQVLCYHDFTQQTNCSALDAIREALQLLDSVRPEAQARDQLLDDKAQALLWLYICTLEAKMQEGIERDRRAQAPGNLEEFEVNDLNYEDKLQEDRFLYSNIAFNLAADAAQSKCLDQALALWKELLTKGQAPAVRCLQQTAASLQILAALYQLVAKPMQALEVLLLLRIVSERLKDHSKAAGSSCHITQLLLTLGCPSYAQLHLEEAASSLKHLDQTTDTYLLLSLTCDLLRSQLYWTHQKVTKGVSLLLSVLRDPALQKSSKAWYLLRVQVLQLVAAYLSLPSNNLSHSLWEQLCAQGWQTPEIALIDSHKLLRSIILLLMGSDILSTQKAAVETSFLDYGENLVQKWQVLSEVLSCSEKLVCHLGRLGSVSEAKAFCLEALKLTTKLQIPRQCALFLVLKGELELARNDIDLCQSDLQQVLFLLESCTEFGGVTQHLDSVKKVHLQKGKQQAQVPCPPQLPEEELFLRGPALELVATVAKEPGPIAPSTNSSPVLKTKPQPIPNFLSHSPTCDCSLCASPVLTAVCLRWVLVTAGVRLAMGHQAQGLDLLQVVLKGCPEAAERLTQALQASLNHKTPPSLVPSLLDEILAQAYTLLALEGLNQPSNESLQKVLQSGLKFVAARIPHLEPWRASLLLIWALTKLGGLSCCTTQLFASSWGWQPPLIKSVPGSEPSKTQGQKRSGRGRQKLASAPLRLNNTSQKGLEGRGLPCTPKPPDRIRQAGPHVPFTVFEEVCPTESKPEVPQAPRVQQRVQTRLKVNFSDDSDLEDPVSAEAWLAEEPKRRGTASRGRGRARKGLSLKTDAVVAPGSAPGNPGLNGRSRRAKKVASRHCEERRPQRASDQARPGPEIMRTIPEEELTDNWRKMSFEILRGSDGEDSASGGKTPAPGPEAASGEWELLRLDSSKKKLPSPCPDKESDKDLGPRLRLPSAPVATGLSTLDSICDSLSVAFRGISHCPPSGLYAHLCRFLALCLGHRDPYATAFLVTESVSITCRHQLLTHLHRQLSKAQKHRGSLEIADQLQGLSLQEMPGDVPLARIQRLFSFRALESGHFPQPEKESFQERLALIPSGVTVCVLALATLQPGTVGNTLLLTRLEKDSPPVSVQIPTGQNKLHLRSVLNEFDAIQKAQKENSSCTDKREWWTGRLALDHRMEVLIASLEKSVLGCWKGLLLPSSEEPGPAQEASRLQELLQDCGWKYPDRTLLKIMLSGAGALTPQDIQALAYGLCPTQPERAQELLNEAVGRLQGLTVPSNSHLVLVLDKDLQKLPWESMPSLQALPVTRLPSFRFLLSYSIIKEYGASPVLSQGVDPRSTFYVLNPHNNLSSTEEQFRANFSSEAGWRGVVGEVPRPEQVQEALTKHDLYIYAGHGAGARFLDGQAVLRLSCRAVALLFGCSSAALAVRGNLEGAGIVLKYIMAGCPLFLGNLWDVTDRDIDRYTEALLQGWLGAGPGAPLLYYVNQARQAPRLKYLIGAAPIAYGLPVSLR
UniProt O15047, whole entry: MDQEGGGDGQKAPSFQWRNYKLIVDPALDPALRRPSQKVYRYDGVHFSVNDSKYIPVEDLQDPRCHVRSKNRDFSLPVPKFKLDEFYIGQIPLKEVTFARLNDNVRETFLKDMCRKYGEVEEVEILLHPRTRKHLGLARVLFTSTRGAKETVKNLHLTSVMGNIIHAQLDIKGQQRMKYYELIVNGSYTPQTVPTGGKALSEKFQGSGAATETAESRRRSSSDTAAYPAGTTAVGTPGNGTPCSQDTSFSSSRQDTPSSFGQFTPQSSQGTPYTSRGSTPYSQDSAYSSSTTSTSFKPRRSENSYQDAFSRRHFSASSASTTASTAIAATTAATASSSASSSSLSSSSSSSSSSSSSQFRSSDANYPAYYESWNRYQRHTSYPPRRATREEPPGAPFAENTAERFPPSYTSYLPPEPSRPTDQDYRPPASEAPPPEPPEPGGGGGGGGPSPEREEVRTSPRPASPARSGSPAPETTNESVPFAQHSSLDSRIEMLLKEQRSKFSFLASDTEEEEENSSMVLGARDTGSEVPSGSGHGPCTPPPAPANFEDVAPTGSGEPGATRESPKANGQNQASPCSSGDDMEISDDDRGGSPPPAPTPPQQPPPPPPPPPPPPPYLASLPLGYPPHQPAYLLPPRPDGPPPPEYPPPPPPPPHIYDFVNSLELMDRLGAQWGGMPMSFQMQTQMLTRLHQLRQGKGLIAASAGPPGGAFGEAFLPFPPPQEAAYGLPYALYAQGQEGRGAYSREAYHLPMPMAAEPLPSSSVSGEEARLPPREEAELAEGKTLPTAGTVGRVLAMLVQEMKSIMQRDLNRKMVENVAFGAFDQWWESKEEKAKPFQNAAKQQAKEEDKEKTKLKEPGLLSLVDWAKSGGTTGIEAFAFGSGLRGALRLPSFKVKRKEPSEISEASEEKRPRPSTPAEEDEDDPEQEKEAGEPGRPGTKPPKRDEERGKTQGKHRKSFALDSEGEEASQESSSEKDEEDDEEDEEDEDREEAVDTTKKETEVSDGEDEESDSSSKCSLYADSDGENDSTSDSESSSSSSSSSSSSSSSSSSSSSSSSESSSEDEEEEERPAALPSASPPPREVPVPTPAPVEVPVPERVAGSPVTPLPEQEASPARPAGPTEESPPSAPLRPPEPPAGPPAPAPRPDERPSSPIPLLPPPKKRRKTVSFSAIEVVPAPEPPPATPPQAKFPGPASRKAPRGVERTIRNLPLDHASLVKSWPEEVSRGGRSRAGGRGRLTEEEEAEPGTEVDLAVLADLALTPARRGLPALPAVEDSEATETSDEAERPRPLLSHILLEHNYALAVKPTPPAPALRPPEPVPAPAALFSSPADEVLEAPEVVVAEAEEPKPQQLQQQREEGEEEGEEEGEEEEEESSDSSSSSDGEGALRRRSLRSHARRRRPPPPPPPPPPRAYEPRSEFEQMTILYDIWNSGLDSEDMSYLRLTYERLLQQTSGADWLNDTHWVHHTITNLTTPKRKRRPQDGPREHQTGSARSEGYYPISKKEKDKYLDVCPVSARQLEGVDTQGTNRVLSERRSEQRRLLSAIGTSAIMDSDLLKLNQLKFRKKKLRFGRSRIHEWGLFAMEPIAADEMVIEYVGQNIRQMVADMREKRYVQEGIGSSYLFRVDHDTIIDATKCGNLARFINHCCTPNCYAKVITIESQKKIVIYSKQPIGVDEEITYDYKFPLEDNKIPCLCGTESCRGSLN
UniProt P51553: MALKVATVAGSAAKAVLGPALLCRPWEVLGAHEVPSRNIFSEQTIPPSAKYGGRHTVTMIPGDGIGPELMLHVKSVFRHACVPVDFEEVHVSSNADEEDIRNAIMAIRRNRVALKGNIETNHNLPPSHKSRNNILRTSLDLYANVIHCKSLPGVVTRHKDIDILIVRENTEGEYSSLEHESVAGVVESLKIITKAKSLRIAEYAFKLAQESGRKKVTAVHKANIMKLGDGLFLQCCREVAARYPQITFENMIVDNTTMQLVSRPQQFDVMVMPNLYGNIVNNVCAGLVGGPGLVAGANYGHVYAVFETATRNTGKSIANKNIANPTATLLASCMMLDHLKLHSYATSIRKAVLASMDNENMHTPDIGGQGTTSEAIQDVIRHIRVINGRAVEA
UniProt O95139, whole entry: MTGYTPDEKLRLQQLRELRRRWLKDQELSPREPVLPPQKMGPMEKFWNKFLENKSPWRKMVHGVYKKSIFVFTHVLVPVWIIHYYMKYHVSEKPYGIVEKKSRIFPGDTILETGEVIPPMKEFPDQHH
UniProt P47813, whole entry: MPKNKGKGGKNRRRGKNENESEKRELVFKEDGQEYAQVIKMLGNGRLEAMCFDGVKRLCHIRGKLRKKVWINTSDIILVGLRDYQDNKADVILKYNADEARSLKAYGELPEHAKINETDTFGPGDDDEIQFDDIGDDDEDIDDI
UniProt Q9H6H4: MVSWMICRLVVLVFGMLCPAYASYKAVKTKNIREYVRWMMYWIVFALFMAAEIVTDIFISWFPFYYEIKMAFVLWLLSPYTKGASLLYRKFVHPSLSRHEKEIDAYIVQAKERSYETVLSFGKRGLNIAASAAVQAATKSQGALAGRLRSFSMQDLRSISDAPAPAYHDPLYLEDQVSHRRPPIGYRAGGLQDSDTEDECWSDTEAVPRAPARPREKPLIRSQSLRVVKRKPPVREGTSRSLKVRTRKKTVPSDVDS

Compound: [O-][N+](C(C1=C(C(O)=C2)NC(C(C=C3)=CC=C3Cl)C4C1C=CC4)=C2Cl)=O
Assay: melting temperature shift (compound 7 minus DMSO); higher = compound stabilises the protein
Conditions: 10 µM
Protocol: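 Thermal proteome profiling (TMT mass spectrometry) in intact DAOY medulloblastoma cells or DAOY lysates treated with 10 µM compound 7 or DMSO, heated at 10 temperatures from 40.5 to 73.8 °C for 3 min. Melting curves were fitted with the Bioconductor TPP package, and the melting point difference between compound and vehicle is reported per protein (single curve per condition).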

[1] = system: DAOY cell lysate, treatment time: 20 min, 4 °C
[2] = system: intact DAOY cells, treatment time: 90 min, 37 °C

Target | melting temperature shift [1] [°C] | melting temperature shift [2] [°C]
TELO2 (UniProt Q9Y4R8) | -0.963 | -0.0129
RDH13 (UniProt Q8NBN7) | 0.745 | –
IARS (UniProt P41252) | -1.09 | -0.65
MAD2L2 (UniProt Q9UI95) | – | 0.17
UniProt O15040 | 0.00921 | 1.31
UniProt O00507 | – | -0.747
CAMK2D (UniProt Q13557) | -0.209 | 0.257
CRYZ (UniProt Q08257) | -0.423 | -0.621
BIN3 (UniProt Q9NQY0) | -1.13 | 0.058
UniProt Q92845 | -2.98 | 0.885
RXRB (UniProt P28702) | -1.16 | –
UniProt Q9UKI9 | – | -0.964
CNOT7 (UniProt Q9UIV1) | -0.614 | –
RCHY1 (UniProt Q96PM5) | – | 5.62
CYP1B1 (UniProt Q16678) | 0.444 | 0.0226
CHMP1B (UniProt Q7LBR1) | -0.909 | –
CPSF3 (UniProt Q9UKF6) | 0.157 | 0.308
DDB1 (UniProt Q16531) | -0.29 | 0.154
MRPL47 (UniProt Q9HD33) | 1.86 | -0.987
UniProt P68133 | 0.379 | 0.273
TIMP1 (UniProt P01033) | 0.795 | –
IMPA1 (UniProt P29218) | -2.45 | –

Target | melting temperature shift [1] [°C] | melting temperature shift [2] [°C]
ZC2HC1A (UniProt Q96GY0) | 0.216 | -1.73
APLP2 (UniProt Q06481) | 1.56 | –
PPP2R1A (UniProt P30153) | -0.241 | -0.00569
FEM1B (UniProt Q9UK73) | -3.19 | 1.8
UniProt Q68D20 | – | 1.86
SRPK2 (UniProt P78362) | -0.158 | 0.00816
SLC25A13 (UniProt Q9UJS0) | 1.39 | -0.726
ARHGEF12 (UniProt Q9NZN5) | -0.182 | -3.13
UniProt Q495N2 | – | 0.181
UniProt Q02446 | -0.551 | -0.915
PHACTR2 (UniProt O75167) | 1.17 | –
LDLR (UniProt P01130) | 2.67 | -0.942
GGA3 (UniProt Q9NZ52) | -2.11 | -0.573
EPS15L1 (UniProt Q9UBC2) | -0.154 | 0.259
NF2 (UniProt P35240) | 0.517 | 0.168
UFSP2 (UniProt Q9NUQ7) | 0.865 | 0.0386
SNTB1 (UniProt Q13884) | 0.468 | –
NUB1 (UniProt Q9Y5A7) | -0.399 | 0.0823
SLC16A3 (UniProt O15427) | 1.94 | –
AXL (UniProt P30530) | 0.302 | -0.661
UniProt P20337 | 1.9 | -1.18
NAA35 (UniProt Q5VZE5) | 0.956 | -0.764

Target | melting temperature shift [1] [°C] | melting temperature shift [2] [°C]
UniProt Q8N5C6 | 1.18 | –
ESPL1 (UniProt Q14674) | -0.0822 | -0.0991
RPAP1 (UniProt Q9BWH6) | -0.0298 | -0.556
TANC1 (UniProt Q9C0D5) | -0.539 | -0.0967
LRRFIP2 (UniProt Q9Y608) | -1.89 | –
SNX4 (UniProt O95219) | -0.638 | -1.09
UniProt Q9P2H0 | – | 0.595
SETD1A (UniProt O15047) | -0.834 | –
YTHDF3 (UniProt Q7Z739) | -0.675 | -0.0674
FARSA (UniProt Q9Y285) | -0.721 | -0.0485
AK6 (UniProt Q9Y3D8) | -1.32 | 1.01
RHOT2 (UniProt Q8IXI1) | 0.245 | 1.01
ITSN2 (UniProt Q9NZM3) | -1.19 | –
TNFAIP3 (UniProt P21580) | – | -1.65
SEC31A (UniProt O94979) | -0.77 | -0.435
UniProt Q92834 | – | -3.37
BROX (UniProt Q5VW32) | -0.137 | -0.222
METTL13 (UniProt Q8N6R0) | -0.6 | -0.702
MCM4 (UniProt P33991) | -0.164 | -1.11
EEF1E1 (UniProt O43324) | -0.64 | -1.12
UniProt Q5VWN6 | -1.81 | –
UniProt Q9NP84 | 0.0235 | –

Target | melting temperature shift [1] [°C] | melting temperature shift [2] [°C]
PLA2G15 (UniProt Q8NCC3) | 0.716 | –
IDH3G (UniProt P51553) | -0.347 | –
TBL1XR1 (UniProt Q9BZK7) | -1.04 | 0.911
NDUFB6 (UniProt O95139) | 2.03 | –
UniProt P17213 | – | 4.22
ZNHIT6 (UniProt Q9NWK9) | -0.231 | 0.61
UniProt P62304 | 0.304 | 1
RPL38 (UniProt P63173) | -0.442 | -0.908
ACTN4 (UniProt O43707) | -0.0408 | 0.906
EIF3C (UniProt Q99613) | -0.046 | -0.14
SAR1B (UniProt Q9Y6B6) | -0.277 | -0.991
DNAJB12 (UniProt Q9NXW2) | 1.99 | -1.11
UniProt Q8TET4 | – | -0.332
MFAP1 (UniProt P55081) | 1.88 | –
EIF1AX (UniProt P47813) | -0.827 | -0.304
PITRM1 (UniProt Q5JRX3) | -0.027 | 2.91
UniProt P63162 | – | 1.48
UniProt P0C1Z6 | 0.117 | 4.34
GNAI3 (UniProt P08754) | 0.822 | -0.189
ANKS1A (UniProt Q92625) | -0.852 | 0.995
REEP4 (UniProt Q9H6H4) | 0.0685 | –

Part of the list above, tab-delimited:
Target	melting temperature shift [1] [°C]	melting temperature shift [2] [°C]
ACTN4 (UniProt O43707)	-0.0408	0.906
EIF3C (UniProt Q99613)	-0.046	-0.14
SAR1B (UniProt Q9Y6B6)	-0.277	-0.991
ANKS1A (UniProt Q92625)	-0.852	0.995

Repeats are few or missing, and single values can be far off.
